The target in experiment [1] is T1, CP190 1–245 aa fused to the GAL4 DNA-binding domain (Drosophila melanogaster) (UniProt Q24478).
T1 sequence: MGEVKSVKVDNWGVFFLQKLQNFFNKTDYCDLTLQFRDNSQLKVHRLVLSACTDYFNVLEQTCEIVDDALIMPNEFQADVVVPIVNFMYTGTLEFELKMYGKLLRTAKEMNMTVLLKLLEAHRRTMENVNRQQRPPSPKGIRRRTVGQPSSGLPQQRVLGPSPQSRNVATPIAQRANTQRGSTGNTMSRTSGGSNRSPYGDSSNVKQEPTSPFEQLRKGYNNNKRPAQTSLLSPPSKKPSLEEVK
Briefly: two-hybrid; CP190 variants fused to the GAL4 DNA-binding domain (pGBT9), C2H2 proteins fused to the GAL4 activating domain (pGAD424); yeast PJ69-4a; growth on medium without tryptophan, leucine, histidine and adenine, 30 °C, compared after 2-3 days; repeated three times.

The chains behind the UniProt entries cited, without tags or fusion partners. Where a name states a change or a piece, a line headed by the entry shows the natural chain unless it says otherwise.
UniProt Q86T24: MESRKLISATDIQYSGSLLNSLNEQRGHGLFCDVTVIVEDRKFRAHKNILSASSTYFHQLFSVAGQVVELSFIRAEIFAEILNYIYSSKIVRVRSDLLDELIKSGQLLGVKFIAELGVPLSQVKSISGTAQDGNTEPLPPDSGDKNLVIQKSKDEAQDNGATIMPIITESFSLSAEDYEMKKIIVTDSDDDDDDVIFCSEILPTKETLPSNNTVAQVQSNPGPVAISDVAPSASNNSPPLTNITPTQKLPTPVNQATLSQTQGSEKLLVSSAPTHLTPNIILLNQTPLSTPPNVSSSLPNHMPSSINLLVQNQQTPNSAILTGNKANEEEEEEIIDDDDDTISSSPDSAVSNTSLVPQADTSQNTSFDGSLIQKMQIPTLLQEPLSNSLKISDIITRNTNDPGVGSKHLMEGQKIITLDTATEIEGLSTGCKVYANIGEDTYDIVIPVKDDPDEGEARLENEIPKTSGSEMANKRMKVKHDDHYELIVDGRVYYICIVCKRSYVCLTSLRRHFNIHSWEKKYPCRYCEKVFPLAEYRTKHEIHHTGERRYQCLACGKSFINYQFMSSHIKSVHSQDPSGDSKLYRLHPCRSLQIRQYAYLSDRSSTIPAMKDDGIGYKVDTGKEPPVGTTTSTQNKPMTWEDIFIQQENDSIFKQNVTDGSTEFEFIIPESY
UniProt Q9VHM3: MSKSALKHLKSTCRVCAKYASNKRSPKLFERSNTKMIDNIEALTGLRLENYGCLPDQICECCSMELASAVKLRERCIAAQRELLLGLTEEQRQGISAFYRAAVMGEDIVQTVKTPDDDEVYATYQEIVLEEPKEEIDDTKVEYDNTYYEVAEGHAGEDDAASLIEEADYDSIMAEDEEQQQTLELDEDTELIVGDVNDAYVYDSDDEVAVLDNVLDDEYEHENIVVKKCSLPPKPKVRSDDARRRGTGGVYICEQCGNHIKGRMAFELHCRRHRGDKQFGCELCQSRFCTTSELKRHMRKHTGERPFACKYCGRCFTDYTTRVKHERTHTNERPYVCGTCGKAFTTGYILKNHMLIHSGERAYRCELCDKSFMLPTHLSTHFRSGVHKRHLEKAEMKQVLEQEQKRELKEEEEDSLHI

The target in experiment [2] is T2, CP190 309–390 aa fused to the GAL4 DNA-binding domain (Drosophila melanogaster) (UniProt Q24478).
T2 sequence: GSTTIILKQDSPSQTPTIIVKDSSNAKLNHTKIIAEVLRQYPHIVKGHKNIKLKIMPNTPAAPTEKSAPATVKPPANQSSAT
The description is as above.

In experiment [3] the target is T3, CP190 309–470 aa fused to the GAL4 DNA-binding domain (Drosophila melanogaster) (UniProt Q24478).
T3 sequence: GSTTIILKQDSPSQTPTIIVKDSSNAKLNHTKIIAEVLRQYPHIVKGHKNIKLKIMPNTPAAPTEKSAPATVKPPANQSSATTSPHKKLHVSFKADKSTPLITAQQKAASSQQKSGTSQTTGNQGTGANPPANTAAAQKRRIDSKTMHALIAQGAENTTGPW
The description is as above.

Experiment [4] has as its target CP190 BTB domain (two-hybrid fusion) (Drosophila melanogaster) (UniProt Q24478). Briefly: two-hybrid; BTB domains of CP190 and of human Kaiso (cloned in pGBT9 or pGAD424) tested with dCTCF, Su(Hw) and Pita (Supplementary Figure S5); yeast PJ69-4a; growth on medium without tryptophan, leucine, histidine and adenine, 30 °C.
Experiment [5] deals with human Kaiso BTB domain (two-hybrid fusion) (human) (UniProt Q86T24). The experiment is described as above.

No constants are given. Whether binding was seen depends on the method and setting. For part of these data: Binding can be weak; no strength is given. Where a sequence is shown, tags or fusion partners need not be part of it.

With “M1BP fused to the GAL4 activating domain (from UniProt Q9VHM3)”, the binding entry in experiment [1] is “binds”; in experiment [2], “no binding”; in experiment [3], “no binding”.
As to “Opbp fused to the GAL4 activating domain (Drosophila melanogaster)”, the binding entry in experiment [1], in experiment [2] and in experiment [3] was “binds” each time.

B1: Su(Hw) (two-hybrid fusion) (protein, UniProt P08970 1-941)
chain: MSASKEGKEKKGKLLGVENISPPKDKRPATRMKLLNDVGAGEDSEASTTTTTSRTPSNKQEKRGSVAGSRIKILNEEILGTPKTEKRGATKSTAPAASTVKILNEKKTPSATVTAVETTKIKTSPSKRKKMEHYVLQAVKSENTKADTTVTVVTEEDDTIDFILADDEEVVPGRIENNNGQEIVVTEDDEDLGEDGDEDGEDSSGKGNSSQTKIKEIVEHVCGKCYKTFRRVQSLKKHLEFCRYDSGYHLRKADMLKNLEKIEKDAVVMEKKDICFCCSESYDTFHLGHINCPDCPKSFKTQTSYERHIFITHSEFSDFPCSICNANLRSEALLALHEEQHKSRGKPYACKICGKDFTRSYHLKRHQKYSSCSSNETDTMSCKVCDRVFYRLDNLRSHLKQHLGTQVVKKPEYMCHTCKNCFYSLSTLNIHIRTHTGEKPFDCDLCDKKFSALVALKKHRRYHTGEKPYSCTVCNQAFAVKEVLNRHMKRHTGERPHKCDECGKSFIQATQLRTHSKTHIRPFPCEQCDEKFKTEKQLERHVKTHSRTKRPVFSCAECKRNFRTPALLKEHMDEGKHSPKQQRSSMRSAVKIMERTDCAICDKNFDSSDTLRRHIRTVHECDPDDIFGVEPHPSKRAKKDIESEEVVPVALNTSAGSLISSQTDGNGVVVREFLVDEGDGAAQTITLENETYTILPLDGAIEGEQLTDEAGVKPEAKKEEAQVSPVVKKEQRKSLAASLAAAIADNLEESCSEDDFSGEILTEEDIKLKENVGKLIDMLVDPPILKKYGWPNAPEETVLCKVIENCGHDLTKGGENYAELDYGSRMREYCKLLFTVVIHNDSIKSLLNNFPIDDVIEYVLGDEDQDEGGLDKDNESHSGDEEAVSVTGETKTNEIREKPEKKEVSAKSEKKEIVGKAVDKDNSEEVVRENKKKPVGEQEKA
Take B1: the values for the binding result in experiment [4] and in experiment [5] were “binds” and “no binding”, respectively.

B2: dCTCF (two-hybrid fusion) (protein, UniProt Q9VS55 1-818)
chain: MPRRTKKDEDPEDLQTFLNNFHKEIEGNSDEKVVNTILEAISAEAIDLDENGAEAGGSKPMEEAEADLDHAEEAEEEEEDDEDKYFIDDEGNCYIKTTPKKQKELQKKLKQAAAKPGKATRSVVSTATNKSINLRPAKSTPKATTSKPPPEPKAISVRPARAAAAKAKQSAMPPPPALVVKVPAPRGRPRKNPVIPKPEPMDLERELEELVDEPDISSMVTELSDYTVDEAAVEAATATLTPNEAEVYEFEDNATTEDENADKKDVDFVLSNKEVKLKTASSTSQNSNASGHKYSCPHCPYTASKKFLITRHSRSHDVEPSFKCSICERSFRSNVGLQNHINTHMGNKPHKCKLCESAFTTSGELVRHTRYKHTKEKPHKCTECTYASVELTKLRRHMTCHTGERPYQCPHCTYASQDMFKLKRHMVIHTGEKKYQCDICKSRFTQSNSLKAHKLIHSVVDKPVFQCNYCPTTCGRKADLRVHIKHMHTSDVPMTCRRCGQQLPDRYQYKLHVKSHEGEKCYSCKLCSYASVTQRHLASHMLIHLDEKPFHCDQCPQAFRQRQLLRRHMNLVHNEEYQPPEPREKLHKCPSCPREFTHKGNLMRHMETHDDSANAREKRRRLKLGRNVRLQKDGTVITLIKDQYVDMDRDQEENEEDDNPESYDLAEIEPENSEAEDADDDVETIVSDPIRQRIKPAPIIINKQARLAASEKQPMIINQRLRSQRGTKTFHIKEEPDNSDFTVEWQGDDGEVMVVELVNGDEEVLVKHEPSANSKISAKNCFGFEDDDDYEEYGDGENEVDGASQEFLQLMDMIEQDS
For B2, the binding entry in experiment [4] is recorded as “binds”; in experiment [5] it was “no binding”.

B3: Pita (two-hybrid fusion) (protein, UniProt Q95RQ8 1-683)
chain: MAAKLEVREAMLTEKRVCRFCLTEQKLASIFEENPRVKTTANLPLQIMAITAIEVYAGDGMPGHICLECRLLFEHCYRFKQMCKRAETLLRQYPLTGNWPSPLEKPRAPMTMVASKKLLVVPAKTAEPSETPKKLLNTMAKSSSQVIIEDVQVLESAMVTPRTVAGSSPVPRRSHAYELKVDNNQELSMDDVQSMLEDMASELEKEFPDIPQKASPVKPKVLNKSSIRILNKGPAAPVEPRLATPKVKRDDSGNVAIVTEVLDSDLPLDDQDDPTKNAEKVATDVFPCPDCERSFPLQQLLEIHRLNHTRSRSFQCLLCEKSFFSKYDLAKHNFVHTGERPFKCAICSKAFTRKALLHRHERTHTDVPKFICVYCEKPFLSRQEMEKHAERHQKKRPFQCGVCTKSFAFKQGLERHETVHSTNLPFPCQHCERSFSTASKLARHLVAHAGKRAYPCKYCHKSYMLSHHLSRHLRTHTQTSDASFVCSECKVSYSNYNDLLDHALIHATASLKCPMCRKQIEDIDSVESHMDQHKQSERHACEFCDHIFLTQKCLQRHIEDDHVVEMEPYQNEFEDDGEGEGGVDEKEEHLDDFEDMDNVKQEEFVTEYLEDDALYEDHLDDSDESFTPPPPKQRKTNPPKDAQQSVRQTRSRDAQRITQKTGKNEGKPHHKLERNLKNRRSAK
Consider B3, for which the binding entry is recorded as “binds” in experiment [4] and “no binding” in experiment [5].

The record behind these values is paper PMC10648081.
